Results as given in patent US20240325429A1, “MINOR SPLICEOSOME TARGETING COMPOSITIONS AND THEIR USE IN CANCER TREATMENT” (UNIVERSITÄT BERN, priority 2021, published 2024).
For at least one compound, name, drawing or mass did not settle the structure.

Legend:
[1] = tested on: minor spliceosome (MiS); assay: Luciferase minor intron splicing reporter assay; type: cell-based, human; conditions: LNCaP and C4-2 cells, long term ADT/ARSi
Description: (§1) CMV-luc2CP/ARE (major intron splicing reporter), CMV-luc2CP (empty vector backbone control) and luc1CFH4 (minor splicing intron reporter) were a kind gift from Dr. Gideon Dreyfuss (University of Pennsylvania). DNA was amplified via chemical transformation of One Shot Mach1 T1 Phage-Resistant Chemically Competent E. coli cells (Invitrogen, C862003) and Sanger sequenced.
(§2) 24 hours prior analysis cells of each condition were co-transfected with each reporter plasmid and the empty vector backbone plasmid. In short 1.5 ul of P3000 reagent plus 0.5 ug of DNA and 1.5 ul Lipofectamine P300 were each diluted in 25 ul Opti-MEMH medium. Both mixes were pooled and incubated for 20 minutes before the solution was added to the cells. Luciferase expression was measured with the Dual-Glo® Luciferase Assay System (Promega, E2940): media was removed, 100 ul of PLB were added and cells were frozen for two hours at −20 C. After a one hour shaking step 100 ul of LAR substrate was added and Firefly luciferase expression was measured with a Tecan Infinite M200PRO reader. Values were calculated as x-fold of CMV-luc2CP expression and subsequently as the x-fold of the respective reference control.

[2] = tested on: major spliceosome; assay: Luciferase major intron splicing reporter assay; type: cell-based, human; conditions: LNCaP and C4-2 cells, long term ADT/ARSi
Description: as §1
as §2, with “To determine the minor/major intron splicing rate cells were seeded in white 96 well plate (Huberlab, 7.655 098) (8000/well) and treated according to assay conditions. 24” for “24”

C[C@]12CC[C@H](O)CC1=CC[C@@H]1[C@@H]2CC[C@]2(C)C(c3cccnc3)=CC[C@@H]12 [abiraterone]
MiS activity (minor splicing luc-reporter) [1]: significant increase in MiS activity
major splicing (luc-reporter) [2]: only limited effects
